From US11660328B2, “GLP-2 analogs and peptibodies for administration before, during or after surgery” (TAKEDA PHARMACEUTICAL COMPANY LIMITED, priority 2017, dated 2023) come the findings set out here.

In this data set the test system is villi and crypt cells of the small intestine. As to the kind of experiment: Ki67 IHC staining histology study of localization to crypts and villi. Conditions: FIGS. 4, 5A and 5B. It is filed as in vivo, female CD-1 mice. On the procedure:
Various doses of GLP-2 peptibody B264 were analyzed to assess the pharmacodynamic plateau, with the primary endpoint a measurement of the small intestinal weight relative to the total body weight and a histology study of the length of villi. 11 groups of six female CD-1 mice each were formed. For histology, four micron paraffin sections were prepared for H&E and Ki67 IHC staining. After whole slide scanning, an imagescope was used to measure villi length and crypt depth, and to analyze Ki67. The antibody against Ki67 is a rabbit antibody sold by Adcam®, catalog number ab 616667. The antibody was used at a working concentration of 1:100 and was detected using a Leica® Refine Kit. […] See, e.g., Example 13 of U.S. Provisional Application No. 62/548,601, filed Aug. 22, 2017 for more data and examples with respect to GLP-2 peptibody B264, GLP-2 peptibody […], and a GLP-2[[…]] peptide.

As to “GLP-2 peptibody K274: GLP-2 peptibody having the amino acid sequence of SEQ ID NO: 4 (GLP-2[A2G]-linker-IgG1 Fc fusion)”, the “localization to the villi and crypt cells” value is listed as “strong localization”.
